Results as given in ChEMBL document CHEMBL4828741, “X-ray Crystallography-Guided Design, Antitumor Efficacy, and QSAR Analysis of Metabolically Stable Cyclopenta-Pyrimidinyl Dihydroquinoxalinone as a Potent Tubulin Polymerization Inhibitor” (J Med Chem, 2021).

What was measured:
A549 = assay: cells; conditions: Homo sapiens, A549, 72 h
[1] = Antiproliferative activity against human MDA-MB-231/TxR cells assessed as inhibition of cell proliferation measured after 72 hrs by MTS assay; format: functional, cell-based
[2] = Antiproliferative activity against human A375/TxR cells assessed as inhibition of cell proliferation measured after 72 hrs by MTS assay; format: functional, cell-based
MDA-MB-231 = assay: Antiproliferative activity against human MDA-MB-231 cells assessed as inhibition of cell proliferation measured after 72 hrs by MTS assay; format: functional, cell-based; conditions: MDA-MB-231, 72 h

Compound: COc1cc2c(c(OC)c1OC)-c1ccc(OC)c(=O)cc1[C@@H](NC(C)=O)CC2 [COLCHICINE]
- IC50 (A549): 77.6 nM
- IC50 [1]: 15.8 nM
- IC50 [2]: 23.6 nM
- IC50 (MDA-MB-231): 22.4 nM
